Source: PubChem BioAssay AID1259424 (University of Nebraska Medical Center, 2018)

Screen: 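Rank knockdowns across the genome by resemblance to the KSR1 depletion profile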 (primary screen)
System: human HCT116 colon cancer cells
Knock-down reagent: siRNA pool against human genes, 50 nM
Measured: 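Six signature mRNAs by branched-DNA multiplex assay, scaled to two housekeeping genes and non-targeting median, log2; matched to mean KSR1 knockdown profile by Pearson correlation and euclidean distance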
Scale: mean correlation with KSR1 profile and KSR1 correlation: higher = expression change more like KSR1 knockdown; mean distance from KSR1 profile: higher = expression change less like KSR1 knockdown
Shown is one part, drawn at random, of about 14,000 deposited reagents. 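Higher correlation or smaller distance means closer resemblance to KSR1 loss; control wells, including KSR1 knockdowns, recur on many plates.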 Not stated in the record: the time to read-out.

gene	mean correlation with KSR1 profile	mean distance from KSR1 profile	KSR1 correlation, replicate 1	KSR1 correlation, replicate 2	KSR1 correlation, replicate 3
GUCY1B2 (GeneID 2974)	-0.229	2.55	-0.33	-0.348	-0.162
EDC4 (GeneID 23644)	-0.405	2.2	-0.105	-0.551	-0.408
NUDC (GeneID 10726)	0.00266	3.05	-0.0331	-0.113	-0.125
CHRM1 (GeneID 1128)	0.788	1.65	0.861	0.705	0.516
CCT2 (GeneID 10576)	-0.338	4.53	-0.103	-0.333	-0.526
CDH24 (GeneID 64403)	-0.0781	1.89	0.196	-0.408	-0.32
FAM53C (GeneID 51307)	-0.449	2.72	-0.676	-0.00957	-0.0146
CIDEA (GeneID 1149)	0.0107	2.49	0.204	-0.0325	0.0827
DDX47 (GeneID 51202)	0.871	1.94	0.794	0.804	0.79
LGALS13 (GeneID 29124)	0.821	1.84	0.763	0.91	0.6
FLOT1 (GeneID 10211)	-0.0768	1.34	-0.256	0.0356	0.0142
RBM19 (GeneID 9904)	0.317	2.16	0.437	0.102	0.389
PDE1A (GeneID 5136)	0.262	1.99	0.0875	0.265	0.348
GGA3 (GeneID 23163)	0.0761	1.28	0.0769	0.29	-0.155
TRIM46 (GeneID 80128)	0.277	1.54	0.294	0.121	0.106
CYP1B1 (GeneID 1545)	0.642	1.24	0.474	0.788	0.512
TIPIN (GeneID 54962)	0.236	1.52	0.055	0.296	-0.0348
PGAM2 (GeneID 5224)	-0.303	2.69	-0.36	-0.458	-0.43
INAVA (GeneID 55765)	-0.85	3.65	-0.903	-0.899	-0.934
RWDD3 (GeneID 25950)	-0.187	1.44	-0.0314	-0.262	-0.368
SGPP1 (GeneID 81537)	0.473	1.36	0.494	0.438	0.506
CDH8 (GeneID 1006)	0.191	1.46	0.351	-0.045	0.548
CSF1R (GeneID 1436)	-0.0866	3.16	-0.254	-0.178	-0.173
EPB41L5 (GeneID 57669)	-0.284	1.35	-0.367	0.0032	-0.15
CBX2 (GeneID 84733)	-0.32	2.87	-0.349	-0.425	-0.35
MRM2 (GeneID 29960)	-0.0906	2.13	-0.427	-0.373	-0.172
CCL16 (GeneID 6360)	-0.481	1.14	0.0292	-0.748	-0.502
MEAF6 (GeneID 64769)	-0.4	2.26	-0.858	-0.318	-0.109
NCS1 (GeneID 23413)	-0.632	3.22	-0.645	-0.639	-0.468
AURKC (GeneID 6795)	0.46	2.16	0.447	0.591	0.00429
TRIM10 (GeneID 10107)	-0.0812	1.59	-0.0481	-0.213	0.0551
PGF (GeneID 5228)	-0.38	2.02	0.0205	-0.373	-0.661
BLOC1S5 (GeneID 63915)	-0.287	1.19	-0.192	-0.611	-0.203
PF4V1 (GeneID 5197)	-0.156	2.33	0.0921	-0.0457	-0.301

5 entries from above, showing only “KSR1 correlation, replicate 2”:
LGALS13 (GeneID 29124) = 0.91
FLOT1 (GeneID 10211) = 0.0356
RBM19 (GeneID 9904) = 0.102
PDE1A (GeneID 5136) = 0.265
GGA3 (GeneID 23163) = 0.29
